Values quoted from earlier work as cited in patent publication US20070264667A1, “Method and system for assaying transferase activity” (priority 2003, published 2007).
Some entries share one result that the patent states for a list of compounds. At least one structure is not confirmed: it was looked up by name or label, or the drawing left a doubt.

Tested on: PKC
Details: read-out: IC50 towards PKC

For `O=C(O)c1cc(N(Cc2ccccc2O)Cc2cc(O)ccc2O)ccc1O` [Lavendustin A], the IC50 is given as greater than 100 µM.
